In patent publication US20090053196A1:
These are yes or no findings as the source states them, for the method shown. Binding seen in cells or lysates may run through a third protein. Some results given as binding are weak or reduced against the parent protein; the word gives no strength. Tags and fused reporters may be left off the sequences shown.

Biological target: T1, GST-CHN-1 (Caenorhabditis elegans)
T1 sequence: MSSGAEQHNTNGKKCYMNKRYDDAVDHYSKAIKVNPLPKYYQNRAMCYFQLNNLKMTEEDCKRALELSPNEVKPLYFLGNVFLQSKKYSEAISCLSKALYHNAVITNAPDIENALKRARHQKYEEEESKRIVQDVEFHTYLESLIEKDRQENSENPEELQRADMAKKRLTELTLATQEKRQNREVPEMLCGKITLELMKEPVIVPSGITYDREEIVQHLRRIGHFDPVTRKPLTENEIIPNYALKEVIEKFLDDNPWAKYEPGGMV
Assay: GST pull-down in the reverse format, data not shown

B1: myc-tagged UFD-2 (^mycUFD-2) (enzyme, Caenorhabditis elegans, UniProt Q09349 1-984, looked up, not shown: small tags and cut ends)
chain: MIEDEKAGLQPMDISDASVFFFQADVESKDFLTSLFDCEGKSDDRMLRYADAIIDVQNLNFDVSPQCLQSNIAEIITKFVLLSQDGSRRGLSRSFNFIDPDIIAGCREEDAIEFLLINFVRCHHELGKSGTSNCYKKTLESTRKAVFSVFVMIQRGYLESQLRSQHASLVFTKRLLEDTVSNVFLRTLVEYLASTDECDEDAITETFNPIFGILRSGIICQRFEDNKDEIVRQILRVMNLLLSIRLPSNGPRPLSNLLVNREDFLPTPSEKIQGREFGLMSFLGPFFSYGLESSARRPNHRVFVDCEEDARKYDGSVNTEQKLYFQRMDPIRTMLHQLMLPLASDQGSRNKTLRWIATIISTNDIRTRSHYDPSDVLCDHYMTNFLSVMYMFSEKIDLSKIIVDYPFLPSSLINISKETRLKMDESGAVAFASQFADRPDEYHFSTVCFFLTIAAQRLVIPPLMNQISEYSRHLKELKHKINALKEKLNTVSGFERAEVEKKLNYETEHWKLMSRHLLCVKTQAQDPALMASSMDFVDKQMKFILNLLCDNLDLLGDDSQLPTEVSQMFCALPEYFLEDALDFYIFAISNGMKLLMERNADWISRLTVLFTQYHYIKSPFLVSKLVRVLSSIQPPLWFNVVRLRMAQENLLMCMIKFYSDFEDNGDFYEKFNVRGNIQYMLEKMEEDMFYKGKFMDMARECGAEFIRFVNMVINDATWCIDESLSGLKSIHDVEKKMANKVEWDNTDQEIRNQDLGVYEEAKRKVKGWLGTAKSNLKLLLSITVNSPEPFRTPVLGERLAAMLNHNLSQLIGSKASELKVKDPRSYGWEPREFVSLLISIYLKLNMPAFVKYIAYDERTYSPEFFHNAIECMRKNSIVGFSQLESFEHLAEDVKKEYEAKAELEEEYDDVPEEFKDPIMDAIMVDPVKLPSGHVMDRAVIERHLLSTPNNPFNRAPLSHNELSPDSELKAKIQEWICQKRNSKK
In the case of B1, the binding is reported as “binds”.
